Consider 1 molecule from US7241873B2, “Recombinant anti-osteopontin antibody and use thereof” (Juridical Foundation the Chemo-sero-therapeutic Research …, priority 2001, dated 2007).

Assay [1] deals with GST-N half (human) [GST: P08515]. In words: Western blotting.
In assay [2] the target is GST-OPN-b (human) [GST: P08515]. The experiment in a line: Western blotting. A general note: A western blot detects proteins with antibodies after separation by electrophoresis.

Results are given in words; binding and its absence hold for the method and conditions named. Some binding calls cover weakened binding; strength is not graded here. No end group written: not given here. *: point of attachment. Biotin = O=C1N[C@H]2[C@H](CS[C@H]2CCCCC(=O)*)N1

B1: murine monoclonal antibody 2K1 (antibody, V domains shown)
VH: QVQLQQSGAELVRPGASVKLSCKALGYTFTDYEMHWVKQTPVHGLEWIGAIHPGRGGTAYNQKFKGKATLTADKSSSTAYMELSSLTSEDSAVYYCTRITGYFDVWGAGTTVTVSS
VL: DVLMTQTPLSLPVSLGDQASISCRSSQSIVHSNGNTYLEWYLQKPGQSPKLLIYKVSNRFSGVPDRFSGSGSGTDFTLKISRVEAEDLGVYYCFQGSHVPLTFGAGTKLELKR
notes: also called murine 2K1 antibody; murine antibody 2K1
As for B1, the binding result in assay [1] and in assay [2] was “binds” throughout.
